Results taken from PubChem BioAssay AID493014 (National Center for Advancing Translational Sciences (NCATS), 2011).
Among all 340,000 compounds or so, about 170 (0.05%) were called active. Inconclusive means that the source gave no clear call. Such entries were picked first, then a sample of the others. The call rests on the fitted dose curve; in most records, active means well fitted inhibition curve with a large enough effect in the signal ratio, with a control signal flat (not every such curve was filed as active); inconclusive means small, poorly fitted or top-dose-only effect, or effect the other way, or a change in a side signal; inactive means flat fitted curve, though single readings scatter; the % refers to the signal ratio. Potencies of inconclusive entries are doubtful fits and often do not repeat.

Assay: qHTS Assay to Find Inhibitors of Chronic Active B-Cell Receptor Signaling;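 on activity change, negative = inhibition: plate controls were basal doxycycline-induced cells for no effect and cells given 10 µM MG132 for full effect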
Conditions: ABC-DLBCL IkBa-CBG/CBR reporter, luminescence ratio (green luciferase fused to IkBa over red control in TMD8 lymphoma cells), 4 h; activity change, negative = inhibition: at 46.1 µM (top of the series) unless noted
In short: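 TMD8 human ABC-DLBCL cells with doxycycline-inducible IκBα–green luciferase fusion and unfused red luciferase, in 0.5% FBS medium; compounds up to 46 uM, 4 h at 37C. Green/red luminescence ratio, filter-overlap corrected, fitted to concentration-response curves.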
Potency means the concentration at half of the fitted maximal effect.

Compound	activity change, negative = inhibition	Potency
COc1ccc(N(CC2CO2)S(=O)(=O)c2ccc(C)cc2)cc1 (configuration not stated)	inactive: -10.2%	
CC1CC(C)CN(C(=O)CN2CCN(Cc3ccc(Cl)cc3)C2=O)C1 (configuration not stated)		inconclusive: 14.6 µM [rising, partial curve, poor fit]
COC(=O)c1c(C)nc(C)c(C(=O)OC)c1-c1ccc(OC)c(OC)c1	inconclusive: -10.4%	
S=C(Nc1ccccc1)Nc1ccc(Cl)cn1	inconclusive: 13.2%	
O=C(O)C1C2C=CC(C2)C1C(=O)NCc1ccc2c(c1)OCO2 (configuration not stated)	inactive: 4.49%	
O=C(CN1C(=O)/C(=C\c2ccccc2Br)Oc2ccccc21)NCCCN1CCOCC1		inconclusive: 35.5 µM [falling, single point]
CC(=O)Nc1ccc(OS(=O)(=O)c2ccc(Cl)cc2)cc1	inactive: 3.02%	
O=C(Nc1ccon1)c1csc2c1CCCC2	inconclusive: -1.53%	
C#CCn1c(=NC(=O)c2cccs2)sc2cccc(OC)c21	inconclusive: 8.32%	
Cc1ccc2cc(CN(c3ccc(C)c(C)c3)S(C)(=O)=O)c(=O)[nH]c2c1		inconclusive: 6.31 µM [falling, single point]
O=[N+]([O-])c1ccc(C(c2sc3nc(-c4ccco4)nn3c2O)N2CCN(c3cccc(Cl)c3)CC2)cc1 (configuration not stated)	inconclusive: -11.5%	
CCC(C)(C)n1nnnc1C(c1cccc(C#N)c1)N1CCN(c2cccc(C)c2C)CC1 (configuration not stated)	inactive: -2.51%	
CC1(C)CC(=O)C2=C(C1)NC(=O)NC2c1ccc(Cl)cc1 (configuration not stated)	inconclusive: 1.22%	
Cc1ccccc1OCC(O)CN(CCO)Cc1ccccc1 (configuration not stated)		inconclusive: 35.5 µM [falling, single point]
CC(C)(C)c1nc(CN2CCOCC2)cc(CN2CCOCC2)c1O	inconclusive: 16%	
Cc1ccc(S(=O)(=O)N2CCOCC2)cc1C(=O)N1CCN(S(=O)(=O)c2cccs2)CC1	inconclusive: -0.974%	
Cc1ccc(NC(=O)CCn2nnc3ccccc32)cc1	inconclusive: 5.65%	
CCc1ccc(Nc2cnn(-c3nc4ccccc4s3)c(=O)c2Cl)cc1	inconclusive: 12.4%	
CCOC(=O)CCCc1ccc(/C(C)=N/NC(N)=S)cc1		inconclusive: 3.16 µM [falling, partial curve, poor fit]
COc1cccc(CNC(=O)N2CCN(c3ccccc3)CC2)c1		inconclusive: 7.08 µM [falling, partial curve]
O=C(NCC1CCCO1)/C(=C\c1ccco1)NC(=O)c1ccccc1 (configuration not stated)	inconclusive: -0.281%	
CN1CCN(c2ccc(NC(=O)c3ccc(-c4cccc([N+](=O)[O-])c4)o3)cc2)CC1	inconclusive: -9.62%	

Ordered by length of the SMILES (ascending): some entries from above
Compound	activity change, negative = inhibition	Potency
S=C(Nc1ccccc1)Nc1ccc(Cl)cn1	inconclusive: 13.2%	
COc1ccc(N(CC2CO2)S(=O)(=O)c2ccc(C)cc2)cc1 (configuration not stated)	inactive: -10.2%	
O=C(NCC1CCCO1)/C(=C\c1ccco1)NC(=O)c1ccccc1 (configuration not stated)	inconclusive: -0.281%	
